Test results reported in patent US20020035058A1, “Isopentenyl pyrophosphate isomerase (IPI) and/or prenyl transferase inhibitors” (The University of Sheffield, priority 1996, published 2002).

Tests used:
J774 macrophages [1] = assay: Loss of total cell viability, MTT reduction; format: cell-based; conditions: 100 μM alendronate + 200 μM mevalonic acid lactone
J774 macrophages [2] = assay: Assessment of apoptosis in J774 macrophages (nuclear morphology, DNA fragmentation); format: cell-based; conditions: 100 μM, 41 h

NCCCC(O)(P(=O)(O)O)P(=O)(O)O [ALENDRONATE, alendronate]
apoptosis and loss of cell viability with mevalonic acid lactone co-incubation (J774 macrophages [1]): not
proportion of remaining cells apoptotic (J774 macrophages [2]): about 80%
